For at least one entry, the source does not settle the construct or the ends of the probe.
Target: MobC (UniProt Q209N7)
Test: EMSA
Conditions: 10 mM Mg2+; EMSA: 25 mM Tris-HCl pH 8.0, 10 mM MgCl2, 50 mM NaCl, 0.1 mg/ml BSA, 37 C, 15 min, 20 ul; 2 pmol DNA, 0-20 pmol protein; 1-1.2% agarose in 1xTBE, ethidium bromide; recombinant protein; residues 1-176; protein details: N-terminal His6 (pET28a); probe letters rebuilt from the primers and the genome

GCGCATGCTTTTCTCGTTGGAGGGTGATCAGGCAATCGGGCAGGACACCATCAAACAGCTCGTTGTTAAAGTGATCATATGCCCGCTGTAGTTCGTCGTAAGCCTGCAATGTTGGTTTCATCTAGTGCCCTGCTCCGTGTATTGGATTGCACAATCTATAACCATTATGCGGCAGCCTTTTGGATTGCACAATCCAAAGTTAGGGGAAGCCGACGAGCCAGGGAGCCCCGCGACCTGGTGAGCCTGGCCGAAGGCCAAAAGCCACTGCAAAACCGAAAAATTTCGTACGTACGAAAAAACATGGGGGGGTTAGAACTAGGGCAGGATTCTAGAATTGCTAGCGTCTGCCGCCGCTTGTGCTAAAATTGCACCTGTCCCCCCCTGCCCCCCCATGTTTAAAGAGGTCGTTAATGGCAAAGAGCTATCGGATCCGC (double strand) [mobCp mutIX 417 bp]
half-maximal binding: 40 nM
